The text below walks through data of PubChem BioAssay AID549 (SRMLSC, 2006).

What is called IC50 is the midpoint of a concentration-inhibition curve. High values mean lower potency, low ones higher potency.

Some of the results follow.

A short description of this test: S. pneumoniae PMK inhibitor potency, dose response, biochemical, mevalonate pathway, coupling enzyme counter-screen (AID 549). Particulars: PK/LDH coupled NADH absorbance 340 nm, measured here: coupling enzymes counter-screen (hexokinase). (A counterscreen serves to expose hits that act by an unwanted route or on another target.)

The compound `O=P(Nc1nccs1)(c1ccccc1)c1nc2ccccc2s1` (stereo unspecified) showed an IC50 of 58.7 µM.
